Results are given in words; binding and its absence hold for the method and conditions named. Some entries that bind do so weakly or less than the wild type. Tags and fused reporters may be left off the sequences shown.
Molecular target: p75^NTR TMD-AraTM chimera, wild type (MBP - p75^NTR TMD - AraC) (human)
Experiment: AraTM (TMD-mediated dimerisation of AraC, GFP reporter in E. coli); MBP-TMD-AraC chimera expressed in AS19 E. coli with Ara-GFP reporter plasmid; 1 mM IPTG, 4 h at 38 °C; GFP/OD630 read-out; baseline without drug, WT set at 100%

- binding: binds
Binder: NLIPVYCSILAAVVVGLVAYIAFKRW (domain or fragment) [p75^NTR TMD-AraTM chimera, wild type (MBP - p75^NTR TMD - AraC)]

Reference: paper PMC12514245, “Impaired migration and lung invasion of human melanoma by a novel small molecule targeting the transmembrane domain of death receptor p75^NTR” (EMBO Molecular Medicine, 2025)
